# According to US20030036505A1:
# Amino acid sequences for entries named in this document (tags omitted).
# UniProt Q60631: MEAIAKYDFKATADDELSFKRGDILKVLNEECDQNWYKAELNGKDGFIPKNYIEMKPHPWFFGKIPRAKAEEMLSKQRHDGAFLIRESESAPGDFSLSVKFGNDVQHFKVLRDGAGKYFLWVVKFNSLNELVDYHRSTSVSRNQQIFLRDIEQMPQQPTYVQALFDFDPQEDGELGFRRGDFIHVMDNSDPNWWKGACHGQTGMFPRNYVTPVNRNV
# No constants are given. Whether binding was seen depends on the method and setting. Binding seen in cells or lysates may run through a third protein. Some entries that bind do so weakly or less than the wild type. Sequences can lack the tags named with a protein.
# B1: GST fusion with the proline-rich domain of Gab3 (protein, murine, UniProt Q8BSM5 396-458, looked up, not shown: a dimerising Fc or GST)
# chain: VPMSPKGTASELRPHCSQDDYIPMSSSMLPELPADLEPPPVNRNLKPQRKSRPPPLDSRNLST
# Biological target: Grb2 (25 kDa Grb2 protein) (murine (endogenous in murine FD-Fms cells)) (UniProt Q60631)
# Assay: GST pull-down from lysates of unstimulated or M-CSF-stimulated FD-Fms cells, anti-Grb2 immunoblot
binder,measurement,value
B1,binding,binds
